According to the supplement of paper PMC3334620:
The full ranking holds about 33,000 sequences; the median of “E-score (-0.5 to 0.5)” is about -0.016, and the highest 2% start at about 0.3. The list shows a part of the results.

target: T1, Yer184c (UniProt P39961); assay: PBM E-score (8-mer binding enrichment) (E-score (-0.5 to 0.5)); higher = stronger / more preferred TF binding; details: protein concentration: 100 nM; construct: GST-full length
T1 sequence: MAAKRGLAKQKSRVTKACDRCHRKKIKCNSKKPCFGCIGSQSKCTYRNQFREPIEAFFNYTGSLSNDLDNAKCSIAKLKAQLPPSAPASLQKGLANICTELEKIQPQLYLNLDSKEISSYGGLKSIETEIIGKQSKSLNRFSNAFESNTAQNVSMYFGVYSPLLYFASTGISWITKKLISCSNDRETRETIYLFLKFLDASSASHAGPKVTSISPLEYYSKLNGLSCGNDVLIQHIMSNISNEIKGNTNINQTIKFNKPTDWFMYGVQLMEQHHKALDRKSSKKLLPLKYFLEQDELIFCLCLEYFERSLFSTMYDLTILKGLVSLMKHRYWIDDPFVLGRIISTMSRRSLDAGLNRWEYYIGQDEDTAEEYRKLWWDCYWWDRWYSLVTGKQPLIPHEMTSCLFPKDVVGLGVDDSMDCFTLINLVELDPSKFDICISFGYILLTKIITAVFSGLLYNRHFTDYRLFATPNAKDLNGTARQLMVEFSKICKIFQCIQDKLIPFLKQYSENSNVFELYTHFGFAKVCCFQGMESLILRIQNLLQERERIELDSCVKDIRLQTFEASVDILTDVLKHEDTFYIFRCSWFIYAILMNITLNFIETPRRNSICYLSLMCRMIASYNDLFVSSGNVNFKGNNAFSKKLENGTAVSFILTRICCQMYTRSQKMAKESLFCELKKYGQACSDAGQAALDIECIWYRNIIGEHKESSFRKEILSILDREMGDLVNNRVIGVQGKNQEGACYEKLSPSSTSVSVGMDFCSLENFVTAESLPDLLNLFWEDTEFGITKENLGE
In short: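 Yeast transcription factors, full-length or as DNA-binding domains, were expressed with a GST tag using PURExpress in vitro transcription/translation. At about 100-200 nM they were applied to universal all-10-mer Agilent arrays, double-stranded by primer extension on fresh or once-stripped slides. Fluorescent anti-GST detected bound protein, and masliner normalised the scans. E-scores for ungapped eight-base words, pooled with reverse complements, came from the Universal PBM Analysis Suite.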

First: CATTTACA
Second: CGCGCTTA
The “PBM E-score” value of the first is lower: -0.0246 for the first, 0.0718 for the second.

First: CTAGTTTA
Second: AGGACGAG
The “PBM E-score” value of the first is higher: -0.0669 for the first, -0.269 for the second.

Compared with AAAGTGGA, ACTCATAT is higher in “PBM E-score” value: -0.249 for the first, 0.0248 for the second.

Compared with GAGAGGCC, AATTGTGT is lower in “PBM E-score” value: -0.0596 for the first, -0.062 for the second.

Compared with GGTTGATA, AGGAAGTG is lower in “PBM E-score” value: 0.14 for the first, -0.102 for the second.

Going from GTACGTGA to ATGAAATG, the “PBM E-score” value falls from -0.0567 to -0.138.

First: GCGTCTTA
Second: GGCTGAAC
The “PBM E-score” value of the first is lower: -0.0802 for the first, 0.0871 for the second.

First: CCGACACC
Second: ACGACGTA
The “PBM E-score” value of the first is lower: -0.0248 for the first, 0.0489 for the second.

First: AACTACCT
Second: ATACGGTG
The “PBM E-score” value of the first is higher: 0.0254 for the first, -0.049 for the second.

Compared with CCGGTAAC, GCGCAACA is lower in “PBM E-score” value: 0.259 for the first, -0.034 for the second.

Compared with ACGATGCC, ATCAACAA is higher in “PBM E-score” value: -0.123 for the first, 0.176 for the second.

Compared with ATAAGTTG, CTAAAGCC is lower in “PBM E-score” value: 0.0611 for the first, -0.232 for the second.

Going from TTCCCCAA to ACTATACT, the “PBM E-score” value rises from -0.158 to -0.0234.

Compared with CAAGTTAA, CTGTTCAA is higher in “PBM E-score” value: 0.00911 for the first, 0.0508 for the second.

Going from CACGCTTC to CCCATTTC, the “PBM E-score” value rises from -0.221 to -0.139.

First: AAATAGCT
Second: GTGCGCTA
The “PBM E-score” value of the first is higher: 0.0915 for the first, -0.26 for the second.

Compared with AAACGACT, CTATCATA is higher in “PBM E-score” value: -0.0469 for the first, 0.162 for the second.

Compared with GCCATTTA, CAGCATCA is higher in “PBM E-score” value: -0.101 for the first, -0.0284 for the second.

Compared with TATTTTGA, TCGTCCAA is higher in “PBM E-score” value: 0.0179 for the first, 0.0266 for the second.

First: CAAAGGCA
Second: ATGGGAAT
The “PBM E-score” value of the first is higher: 0.00969 for the first, -0.0742 for the second.

Compared with GCATGCCA, TAGACAAA is higher in “PBM E-score” value: -0.0785 for the first, -0.0161 for the second.

Compared with AATGTTCG, CCAGGCCA is lower in “PBM E-score” value: 0.0469 for the first, -0.211 for the second.

Compared with ATACTTTA, ATCTCTAG is lower in “PBM E-score” value: 0.0867 for the first, -0.118 for the second.

First: CCGTCCCC
Second: CTGCATAC
The “PBM E-score” value of the first is lower: -0.154 for the first, -0.0165 for the second.

Going from CGGTACCC to AACTGGCA, the “PBM E-score” value rises from -0.0697 to 0.00917.

Going from CCGCATGC to CCCAGCAG, the “PBM E-score” value falls from 0.0227 to 0.0118.

First: AACTCAAT
Second: AACAATGG
The “PBM E-score” value of the first is higher: 0.0852 for the first, 0.0443 for the second.

First: GCGAATAC
Second: GTGCCCCA
The “PBM E-score” value of the first is higher: -0.0764 for the first, -0.305 for the second.

Going from AATTTCTA to AAACCCGG, the “PBM E-score” value rises from 0.274 to 0.337.

Going from TCAGACAA to CAGATAAA, the “PBM E-score” value rises from -0.0221 to 0.141.

First: GGGCGATA
Second: AATGGAGT
The “PBM E-score” value of the first is lower: -0.222 for the first, -0.163 for the second.

First: ACCTAGCT
Second: ATGTCCTG
The “PBM E-score” value of the first is lower: -0.277 for the first, 0.0779 for the second.

Going from AAAATCAT to ATTGGATG, the “PBM E-score” value falls from 0.219 to 0.0431.

First: AGGTCTTC
Second: GATCTTTA
The “PBM E-score” value of the first is lower: -0.115 for the first, 0.106 for the second.

Going from GACCACCA to CAGTTGGC, the “PBM E-score” value falls from -0.0215 to -0.138.

Compared with ACGCGATA, GGCCATTA is higher in “PBM E-score” value: -0.128 for the first, -0.0323 for the second.

Compared with CGTGTACC, CACATACG is lower in “PBM E-score” value: -0.0823 for the first, -0.287 for the second.

Compared with AATATCGG, GTTGCCAA is lower in “PBM E-score” value: 0.286 for the first, -0.035 for the second.

Compared with CGGTCTGA, AATCGCAG is lower in “PBM E-score” value: 0.208 for the first, -0.0676 for the second.

Going from ATTCTGGA to CGAGGAAC, the “PBM E-score” value falls from 0.218 to 0.184.

Compared with ACTATTAA, AGAAATGC is lower in “PBM E-score” value: 0.141 for the first, 0.0544 for the second.

Going from AAGCAGCA to ATTAGTCA, the “PBM E-score” value rises from -0.196 to 0.162.

Going from CAAAACAA to GACATTCC, the “PBM E-score” value rises from -0.0896 to -0.0605.

First: AGGCGCTA
Second: CACTCATG
The “PBM E-score” value of the first is higher: -0.0158 for the first, -0.142 for the second.

Compared with CTTGCACC, ACGCACAG is lower in “PBM E-score” value: 0.0155 for the first, -0.0839 for the second.

Compared with CCGCCCAC, CACCGTTA is lower in “PBM E-score” value: -0.0179 for the first, -0.0428 for the second.

First: AGGCTAAA
Second: CCGGCAAG
The “PBM E-score” value of the first is lower: -0.0661 for the first, 0.331 for the second.

First: GTCTATGA
Second: AAATATTG
The “PBM E-score” value of the first is lower: 0.00499 for the first, 0.208 for the second.

Compared with AATGATTA, AAGGATCC is lower in “PBM E-score” value: 0.218 for the first, -0.0186 for the second.

Compared with GGCGACAC, CGTCTCGA is lower in “PBM E-score” value: 0.129 for the first, 0.0829 for the second.

First: AGTTCATC
Second: AAGGATGT
The “PBM E-score” value of the first is higher: 0.0688 for the first, -0.183 for the second.

Compared with GGCGGGTA, AACTATAC is higher in “PBM E-score” value: -0.103 for the first, 0.0454 for the second.

Compared with AACGTTAC, GAAGATCA is lower in “PBM E-score” value: 0.074 for the first, -0.00997 for the second.

Going from GCGATGCA to CGAACAGA, the “PBM E-score” value rises from -0.248 to 0.209.

Compared with GTCGCGAA, ACCGACAT is higher in “PBM E-score” value: 0.00034 for the first, 0.154 for the second.

Compared with ACCAAACC, TATCCGAA is higher in “PBM E-score” value: -0.034 for the first, 0.386 for the second.

Compared with GAGAGCCA, CCGGGTTC is higher in “PBM E-score” value: -0.0998 for the first, 0.356 for the second.

Going from AAGATCAC to CCAGGCTC, the “PBM E-score” value falls from -0.0399 to -0.118.

Going from GCCAGGTA to AAGGGCTA, the “PBM E-score” value falls from -0.144 to -0.166.

Compared with CGAGGATC, GGGTGACC is lower in “PBM E-score” value: 0.0927 for the first, -0.0707 for the second.

Going from CCTGGGAG to AAAAAACT, the “PBM E-score” value rises from -0.237 to -0.121.

Going from ATGTCTAC to GATACATC, the “PBM E-score” value rises from -0.103 to -0.0575.

First: ATGTTGGA
Second: GCTTTCCA
The “PBM E-score” value of the first is higher: 0.131 for the first, 0.00811 for the second.

Going from GGTTTTCA to AAGATGCC, the “PBM E-score” value falls from 0.0617 to 0.0181.

First: CTCCAAAG
Second: AGGGGAAC
The “PBM E-score” value of the first is higher: -0.0443 for the first, -0.271 for the second.

First: ACTTTAGC
Second: CATAAACC
The “PBM E-score” value of the first is lower: -0.00575 for the first, 0.0467 for the second.

First: CCTACTCG
Second: AGGTATGG
The “PBM E-score” value of the first is higher: -0.0284 for the first, -0.337 for the second.

First: GACCTAGA
Second: CGCGTTAC
The “PBM E-score” value of the first is lower: -0.136 for the first, -0.108 for the second.

Compared with CATAACGG, TTCTAAAA is higher in “PBM E-score” value: -0.0464 for the first, 0.235 for the second.

Going from GTTAAAAC to ATAATGCC, the “PBM E-score” value falls from 0.209 to 0.0664.

Going from TACTCTGA to CATTTCCC, the “PBM E-score” value rises from -0.171 to 0.122.

Going from CGTCCTAA to GCGTGCAC, the “PBM E-score” value rises from -0.178 to -0.0535.

Going from AACACTAA to AACAACTG, the “PBM E-score” value rises from 0.101 to 0.103.

Going from GATAAGGA to GGAAATGA, the “PBM E-score” value falls from 0.209 to 0.188.

Compared with AATCACGT, CGCTAGCA is lower in “PBM E-score” value: 0.0406 for the first, -0.141 for the second.

Compared with GCACGAAC, CCATCTAA is lower in “PBM E-score” value: 0.0972 for the first, -0.0599 for the second.

First: GGAATCAC
Second: AGAGCACG
The “PBM E-score” value of the first is higher: 0.121 for the first, -0.0154 for the second.

Going from AGGCCGAG to TGGCTGAA, the “PBM E-score” value falls from 0.143 to -0.121.

Compared with ATGTCGGG, CAGATCGA is higher in “PBM E-score” value: -0.0686 for the first, -0.0498 for the second.

Compared with CCCCCACG, GTCATGCA is higher in “PBM E-score” value: -0.335 for the first, -0.0558 for the second.

Going from ACATCGGA to AGCCTGTG, the “PBM E-score” value falls from 0.223 to -0.199.

Going from ATCTCTAC to GACTTTAA, the “PBM E-score” value rises from -0.101 to 0.105.

Compared with CACTGCCG, AAATTAAG is lower in “PBM E-score” value: 0.258 for the first, 0.119 for the second.

Compared with CTATAACC, CCATGCGG is higher in “PBM E-score” value: -0.148 for the first, -0.135 for the second.

Going from AGTTATTA to CTTCCTGC, the “PBM E-score” value falls from 0.0498 to -0.314.

First: CAGTGCTA
Second: AGGATTTC
The “PBM E-score” value of the first is lower: -0.109 for the first, 0.00676 for the second.
